For at least one entry, the source does not settle the construct or the ends of the probe. The comparison behind a weaker result is the experiment's own reference, which may not be listed here. Tags and fusion partners may be left off the protein sequences shown.

The target in this data set is T1, Lsr2 (Streptomyces venezuelae ATCC 10712) (UniProt F2R951).
T1 sequence (looked up, limits assumed): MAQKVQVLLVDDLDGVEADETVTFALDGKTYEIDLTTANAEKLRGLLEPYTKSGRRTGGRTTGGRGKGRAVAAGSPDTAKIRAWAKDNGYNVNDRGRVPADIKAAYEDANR
Kind of data set: EMSA. To be noted: 0-500 nM Lsr2, 1 nM probe, 5 mM Mg2+; 10 mM Tris pH 7.8, 5 mM MgCl2, 60 mM KCl, 10% glycerol; Lsr2 (EMSA, AFM): room temperature 10 min then ice 30 min; CmlR: 30 C 30 min; recombinant protein; label: 5' 32P; probe letters rebuilt from the primers and the genome. (In general: Mobility shift assays separate free from complexed probe on a gel.)

As to “ATATCCGGTACCCCAAGGAAGAGAACAGCTTCCCGATGGGTATCAAGAACACTAGCGTGCGCCCGCACGCCCAGTCCCGTAACGACGGGAAAAGCCACCCTTCTCAGTGCGGCGGCGTCACCCACGACAACATCCGCCACACCACCCGCTTCACGGTGGTCGGCAACCATCTCGCCCAGCACGACGAGCTGTCGCTGACGGCGATCGGCCTGGCCGTCCACATCCAGTCGCTCCTCTAGAGGATAT (double strand) [sven3556 probe]”, the binding result is given as “binds more weakly”.

Source of the values: paper PMC8406272.
